The supplement of paper PMC11732987, “Enantioselective OTUD7B fragment discovery through chemoproteomics screening and high-throughput optimisation” (Communications Chemistry, 2025)
The list shows a part of the results. The data scatter; read single values as rough.

Sequences of proteins named here, by UniProt entry; tags and fusion partners are left off. A change or cut given only in a name is not applied to a line headed by its entry. Residues count along the entry.
UniProt Q15818: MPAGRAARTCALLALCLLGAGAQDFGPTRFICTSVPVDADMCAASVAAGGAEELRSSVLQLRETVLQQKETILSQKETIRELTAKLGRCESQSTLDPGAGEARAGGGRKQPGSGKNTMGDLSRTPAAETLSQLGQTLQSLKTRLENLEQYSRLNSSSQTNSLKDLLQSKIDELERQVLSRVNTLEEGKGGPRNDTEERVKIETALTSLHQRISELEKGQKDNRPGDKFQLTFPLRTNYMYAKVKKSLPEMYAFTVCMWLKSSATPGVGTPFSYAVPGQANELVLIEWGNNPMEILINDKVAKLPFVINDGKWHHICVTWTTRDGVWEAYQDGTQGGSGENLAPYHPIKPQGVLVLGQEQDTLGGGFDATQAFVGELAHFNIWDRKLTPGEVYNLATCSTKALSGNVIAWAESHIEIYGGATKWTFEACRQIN
UniProt Q8N1F7, 397-417: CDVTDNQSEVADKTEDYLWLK
UniProt P49790, 1129-1148: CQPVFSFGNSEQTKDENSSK
UniProt Q969T7: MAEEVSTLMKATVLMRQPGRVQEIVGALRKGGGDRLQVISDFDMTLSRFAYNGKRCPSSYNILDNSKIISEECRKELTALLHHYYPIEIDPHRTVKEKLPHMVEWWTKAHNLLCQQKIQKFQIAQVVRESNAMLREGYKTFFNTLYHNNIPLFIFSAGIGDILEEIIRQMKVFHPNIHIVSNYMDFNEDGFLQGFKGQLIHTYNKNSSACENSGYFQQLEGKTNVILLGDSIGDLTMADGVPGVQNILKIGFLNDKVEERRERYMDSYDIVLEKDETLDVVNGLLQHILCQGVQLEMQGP
UniProt Q9Y6K5: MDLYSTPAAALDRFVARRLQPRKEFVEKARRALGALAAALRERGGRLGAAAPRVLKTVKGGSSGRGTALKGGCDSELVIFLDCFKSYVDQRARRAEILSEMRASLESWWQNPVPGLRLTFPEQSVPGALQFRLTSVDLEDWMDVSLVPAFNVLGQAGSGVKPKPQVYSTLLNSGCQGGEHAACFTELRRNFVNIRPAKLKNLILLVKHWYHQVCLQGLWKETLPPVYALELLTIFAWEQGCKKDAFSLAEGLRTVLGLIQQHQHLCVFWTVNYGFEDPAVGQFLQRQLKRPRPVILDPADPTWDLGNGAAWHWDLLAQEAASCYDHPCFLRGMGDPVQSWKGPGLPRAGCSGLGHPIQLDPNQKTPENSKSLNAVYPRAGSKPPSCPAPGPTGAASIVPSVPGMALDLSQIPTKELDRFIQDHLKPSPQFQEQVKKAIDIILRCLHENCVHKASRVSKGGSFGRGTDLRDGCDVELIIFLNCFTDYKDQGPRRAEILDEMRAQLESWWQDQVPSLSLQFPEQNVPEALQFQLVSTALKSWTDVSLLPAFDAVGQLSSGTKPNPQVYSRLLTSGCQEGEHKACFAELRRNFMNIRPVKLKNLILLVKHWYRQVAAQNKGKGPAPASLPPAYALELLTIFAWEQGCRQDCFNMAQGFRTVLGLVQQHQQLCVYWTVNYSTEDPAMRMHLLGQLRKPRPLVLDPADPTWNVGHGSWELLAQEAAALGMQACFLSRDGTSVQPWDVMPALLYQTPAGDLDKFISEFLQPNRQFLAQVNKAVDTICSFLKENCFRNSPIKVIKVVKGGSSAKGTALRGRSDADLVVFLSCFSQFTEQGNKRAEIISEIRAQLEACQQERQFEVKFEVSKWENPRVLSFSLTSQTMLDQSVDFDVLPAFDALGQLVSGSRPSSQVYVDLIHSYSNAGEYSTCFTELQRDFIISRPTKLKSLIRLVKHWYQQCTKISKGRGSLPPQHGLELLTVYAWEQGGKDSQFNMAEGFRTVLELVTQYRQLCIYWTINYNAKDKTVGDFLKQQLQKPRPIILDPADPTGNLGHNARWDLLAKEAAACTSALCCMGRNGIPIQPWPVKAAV
UniProt Q12769: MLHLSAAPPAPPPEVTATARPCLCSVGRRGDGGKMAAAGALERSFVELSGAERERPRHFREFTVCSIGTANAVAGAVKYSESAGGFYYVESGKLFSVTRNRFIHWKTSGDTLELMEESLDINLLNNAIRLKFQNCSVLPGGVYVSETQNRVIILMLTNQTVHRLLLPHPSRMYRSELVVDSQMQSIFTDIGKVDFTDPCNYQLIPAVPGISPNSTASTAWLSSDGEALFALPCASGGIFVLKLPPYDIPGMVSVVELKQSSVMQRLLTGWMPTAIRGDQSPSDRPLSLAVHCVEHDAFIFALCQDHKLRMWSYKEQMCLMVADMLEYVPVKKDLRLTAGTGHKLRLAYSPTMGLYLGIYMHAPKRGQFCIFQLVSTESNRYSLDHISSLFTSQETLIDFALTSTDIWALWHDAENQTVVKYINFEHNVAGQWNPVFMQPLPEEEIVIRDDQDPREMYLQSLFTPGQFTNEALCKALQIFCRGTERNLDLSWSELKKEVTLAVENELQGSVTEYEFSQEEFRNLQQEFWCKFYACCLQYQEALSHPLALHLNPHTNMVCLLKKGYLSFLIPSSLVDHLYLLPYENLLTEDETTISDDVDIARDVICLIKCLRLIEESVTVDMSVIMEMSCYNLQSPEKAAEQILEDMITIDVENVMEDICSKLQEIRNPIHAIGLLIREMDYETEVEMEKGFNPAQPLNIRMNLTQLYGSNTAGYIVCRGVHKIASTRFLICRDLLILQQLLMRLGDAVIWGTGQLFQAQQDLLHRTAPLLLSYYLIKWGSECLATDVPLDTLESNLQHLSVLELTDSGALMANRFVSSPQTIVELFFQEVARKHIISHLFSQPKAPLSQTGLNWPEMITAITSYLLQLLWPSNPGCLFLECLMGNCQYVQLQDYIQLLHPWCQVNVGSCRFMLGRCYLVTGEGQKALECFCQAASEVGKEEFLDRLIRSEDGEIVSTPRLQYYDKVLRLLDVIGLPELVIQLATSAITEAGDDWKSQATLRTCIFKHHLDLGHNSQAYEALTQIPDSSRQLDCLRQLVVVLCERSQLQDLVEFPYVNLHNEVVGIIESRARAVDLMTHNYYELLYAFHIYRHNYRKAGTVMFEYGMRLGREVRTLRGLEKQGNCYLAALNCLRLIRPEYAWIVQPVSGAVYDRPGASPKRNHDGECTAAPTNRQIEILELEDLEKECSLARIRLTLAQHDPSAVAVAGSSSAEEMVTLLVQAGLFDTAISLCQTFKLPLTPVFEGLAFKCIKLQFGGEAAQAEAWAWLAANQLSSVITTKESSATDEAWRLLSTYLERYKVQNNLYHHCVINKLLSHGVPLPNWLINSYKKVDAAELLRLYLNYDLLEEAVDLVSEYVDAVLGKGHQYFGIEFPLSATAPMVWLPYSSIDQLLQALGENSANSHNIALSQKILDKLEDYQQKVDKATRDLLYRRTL
UniProt Q04721: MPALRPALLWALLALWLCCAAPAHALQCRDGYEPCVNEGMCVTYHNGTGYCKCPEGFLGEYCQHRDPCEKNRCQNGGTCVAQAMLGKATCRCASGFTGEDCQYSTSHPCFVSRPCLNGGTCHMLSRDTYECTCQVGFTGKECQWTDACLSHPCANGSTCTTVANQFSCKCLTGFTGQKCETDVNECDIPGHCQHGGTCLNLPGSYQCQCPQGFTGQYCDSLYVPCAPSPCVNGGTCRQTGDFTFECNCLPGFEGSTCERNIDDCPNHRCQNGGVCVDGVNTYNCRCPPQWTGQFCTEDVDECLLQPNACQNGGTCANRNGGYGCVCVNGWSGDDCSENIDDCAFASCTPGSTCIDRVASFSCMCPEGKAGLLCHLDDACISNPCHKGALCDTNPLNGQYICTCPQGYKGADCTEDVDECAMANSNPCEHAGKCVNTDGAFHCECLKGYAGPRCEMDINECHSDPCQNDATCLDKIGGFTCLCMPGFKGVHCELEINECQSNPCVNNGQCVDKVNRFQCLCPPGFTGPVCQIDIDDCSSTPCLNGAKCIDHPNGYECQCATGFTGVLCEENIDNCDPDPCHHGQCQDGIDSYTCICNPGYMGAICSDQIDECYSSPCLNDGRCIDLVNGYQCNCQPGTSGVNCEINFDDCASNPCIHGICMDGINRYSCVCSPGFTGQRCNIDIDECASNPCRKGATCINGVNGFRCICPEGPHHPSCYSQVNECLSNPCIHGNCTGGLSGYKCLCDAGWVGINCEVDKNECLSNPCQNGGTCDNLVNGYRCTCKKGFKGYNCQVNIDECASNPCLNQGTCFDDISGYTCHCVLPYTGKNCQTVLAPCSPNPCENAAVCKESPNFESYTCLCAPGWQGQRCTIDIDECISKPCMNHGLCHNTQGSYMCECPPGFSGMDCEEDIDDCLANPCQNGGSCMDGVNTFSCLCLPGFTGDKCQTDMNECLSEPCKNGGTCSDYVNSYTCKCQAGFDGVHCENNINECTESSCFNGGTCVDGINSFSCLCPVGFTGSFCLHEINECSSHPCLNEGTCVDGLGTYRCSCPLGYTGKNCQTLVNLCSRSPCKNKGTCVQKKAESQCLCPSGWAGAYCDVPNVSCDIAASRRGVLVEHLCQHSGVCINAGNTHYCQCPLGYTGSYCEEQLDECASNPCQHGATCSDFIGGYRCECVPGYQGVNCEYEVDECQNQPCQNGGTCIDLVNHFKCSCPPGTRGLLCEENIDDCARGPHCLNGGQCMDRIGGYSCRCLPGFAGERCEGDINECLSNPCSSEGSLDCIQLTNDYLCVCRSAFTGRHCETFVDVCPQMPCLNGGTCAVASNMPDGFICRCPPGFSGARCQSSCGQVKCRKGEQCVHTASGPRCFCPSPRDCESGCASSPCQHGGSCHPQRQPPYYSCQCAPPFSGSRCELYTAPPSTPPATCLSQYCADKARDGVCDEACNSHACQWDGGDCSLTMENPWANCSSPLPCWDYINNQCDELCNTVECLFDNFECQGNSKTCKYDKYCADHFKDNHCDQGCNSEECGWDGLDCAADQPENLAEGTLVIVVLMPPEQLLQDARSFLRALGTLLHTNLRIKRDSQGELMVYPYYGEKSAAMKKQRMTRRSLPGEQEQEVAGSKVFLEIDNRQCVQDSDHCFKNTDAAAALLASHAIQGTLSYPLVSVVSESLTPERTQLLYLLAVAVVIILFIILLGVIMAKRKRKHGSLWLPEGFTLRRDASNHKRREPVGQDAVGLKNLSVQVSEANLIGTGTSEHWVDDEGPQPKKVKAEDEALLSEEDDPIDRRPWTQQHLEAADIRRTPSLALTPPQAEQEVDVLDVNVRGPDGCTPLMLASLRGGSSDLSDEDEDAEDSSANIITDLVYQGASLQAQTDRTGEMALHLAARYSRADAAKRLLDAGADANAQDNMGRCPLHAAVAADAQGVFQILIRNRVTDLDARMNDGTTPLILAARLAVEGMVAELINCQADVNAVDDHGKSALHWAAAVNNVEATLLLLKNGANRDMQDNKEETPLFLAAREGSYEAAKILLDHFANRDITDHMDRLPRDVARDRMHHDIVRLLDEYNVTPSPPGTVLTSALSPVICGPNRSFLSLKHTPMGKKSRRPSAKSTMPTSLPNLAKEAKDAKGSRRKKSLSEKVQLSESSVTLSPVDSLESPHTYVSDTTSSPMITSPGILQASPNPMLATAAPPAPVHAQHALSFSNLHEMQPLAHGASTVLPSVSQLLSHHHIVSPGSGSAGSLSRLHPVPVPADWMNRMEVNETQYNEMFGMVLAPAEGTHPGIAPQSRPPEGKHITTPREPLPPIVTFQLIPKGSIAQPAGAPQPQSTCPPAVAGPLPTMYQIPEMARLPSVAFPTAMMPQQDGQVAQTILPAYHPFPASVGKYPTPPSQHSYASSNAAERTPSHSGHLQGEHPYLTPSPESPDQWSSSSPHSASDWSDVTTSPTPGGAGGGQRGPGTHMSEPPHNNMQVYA
UniProt Q5W0B1: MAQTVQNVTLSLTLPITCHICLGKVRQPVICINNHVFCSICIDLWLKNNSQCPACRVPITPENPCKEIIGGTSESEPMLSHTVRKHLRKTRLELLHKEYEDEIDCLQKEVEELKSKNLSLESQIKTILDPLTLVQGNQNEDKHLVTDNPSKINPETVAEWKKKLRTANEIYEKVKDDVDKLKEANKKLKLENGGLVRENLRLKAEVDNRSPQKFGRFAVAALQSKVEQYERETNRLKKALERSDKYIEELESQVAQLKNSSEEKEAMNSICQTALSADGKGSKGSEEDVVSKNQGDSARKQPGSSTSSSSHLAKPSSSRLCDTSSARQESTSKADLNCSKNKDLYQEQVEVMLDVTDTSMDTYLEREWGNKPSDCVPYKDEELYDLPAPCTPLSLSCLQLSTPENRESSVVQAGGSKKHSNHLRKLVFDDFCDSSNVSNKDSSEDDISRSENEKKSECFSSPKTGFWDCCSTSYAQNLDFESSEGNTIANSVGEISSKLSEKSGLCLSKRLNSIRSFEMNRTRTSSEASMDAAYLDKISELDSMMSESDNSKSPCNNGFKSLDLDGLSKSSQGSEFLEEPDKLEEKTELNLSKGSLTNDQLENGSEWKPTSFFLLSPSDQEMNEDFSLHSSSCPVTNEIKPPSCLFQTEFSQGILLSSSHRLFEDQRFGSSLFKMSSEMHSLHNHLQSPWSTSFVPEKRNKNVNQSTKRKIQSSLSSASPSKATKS

What was measured:
[1] = compound: ClCC(=O)N[C@@H]1CCCc2ccccc12; test: log2 mean competition ratio of IA-DTB cysteine labelling (DMSO/compound) (log2 ratio); higher = stronger cysteine engagement by compound; settings: treatment time: 4 h, cell line lysate: HEK293T
Method: (§1)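 IA-DTB competitive cysteine chemoproteomics in HEK293T RIPA lysate. Lysates were treated with compound 29 or 30 at 50 or 200 µM for 4 h, then IA-DTB (500 µM, 1 h), trypsin-digested, NeutrAvidin-enriched and analysed by diaPASEF. Competition ratio = intensity DMSO / intensity compound (n=4 treated, n=64 DMSO); binding: mean log2 CR ≥ 1 and p ≤ 0.05 plus QC filters. Target is the cysteine site.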

[2] = compound: ClCC(=O)N[C@H]1CCCc2ccccc12; test: as above; settings: treatment time: 4 h, cell line lysate: HEK293T
Method: as §1

Target	log2 mean competition ratio ([1]; 50 µM)	log2 mean competition ratio ([1]; 200 µM)	log2 mean competition ratio ([2]; 50 µM)	log2 mean competition ratio ([2]; 200 µM)
NPTX1 C89 (UniProt Q15818)	-0.0163	-0.233	-0.138	-0.318
NUDT2 C143 (UniProt P50583)	-0.0553	-0.253	0.244	-0.315
NPC1 C979 (UniProt O15118)	0.382	0.0732	0.0408	-0.187
NUP93 C397 (UniProt Q8N1F7)	0.152	-0.628	0.589	-0.164
NUMA1 C375 (UniProt Q14980)	-0.0559	-0.129	-0.504	-0.162
NUP153 C1129 (UniProt P49790)	-0.0545	0.0408	0.212	-0.118
NT5C3B C210 (UniProt Q969T7)	-0.379	0.236	-0.0331	0.0225
NUP155 C1344 (UniProt O75694)	-0.254	0.269	-0.0526	0.21
OAS3 C350 (UniProt Q9Y6K5)	-0.0664	-0.248	-0.235	-0.218
ORC6 C35 (UniProt Q9Y5N6)	0.184	0.183	0.285	0.182
NUP160 C1187 (UniProt Q12769)	-0.609	0.546	-0.324	0.284
NOTCH2 C1252 (UniProt Q04721)	-0.0277	0.326	-0.0395	0.299
NUP214 C728	0.19	-0.0119	0.192	0.799
OBI1 C506 (UniProt Q5W0B1)	0.239	0.18	0.275	0.169
NOTCH2 C1250 (UniProt Q04721)	-0.106	0.868	0.221	0.611
NSUN4 C258 (UniProt Q96CB9)	-0.173	-0.0732	-0.134	-0.109

Reformatted: entries from further up.
Target | log2 mean competition ratio ([1]; 50 µM) | log2 mean competition ratio ([1]; 200 µM) | log2 mean competition ratio ([2]; 50 µM) | log2 mean competition ratio ([2]; 200 µM)
NUP214 C728 | 0.19 | -0.0119 | 0.192 | 0.799
NOTCH2 C1250 (UniProt Q04721) | -0.106 | 0.868 | 0.221 | 0.611
